From paper PMC5794780, “ATP-dependent conformational change in ABC-ATPase RecF serves as a switch in DNA repair” (Scientific Reports, 2018)
Results are given in words; binding and its absence hold for the method and conditions named. Values belong to the binder of their own block, whether it stands above or below them.

What was measured:
[1] = molecular target: TTERecF mutant G35A (Thermoanaerobacter tengcongensis MB4) (UniProt Q8RDL3); test: SEC; Superdex-200, 0.5 ml/min, 50 mM Tris-HCl pH 7.0, 300 mM NaCl; protein with ATP 1 mM (G35A 10 µM, K36A 77 µM, S37A 35 µM, N38A 47 µM); both purified
[2] = molecular target: TTERecF mutant K36A (Thermoanaerobacter tengcongensis MB4) (UniProt Q8RDL3); test: as above
[3] = molecular target: TTERecF mutant S37A (Thermoanaerobacter tengcongensis MB4) (UniProt Q8RDL3); test: as above
[4] = molecular target: TTERecF mutant N38A (Thermoanaerobacter tengcongensis MB4) (UniProt Q8RDL3); test: as above
[5] = molecular target: deletion mutant of RecF (229aa-262aa) (Thermoanaerobacter tengcongensis MB4) (UniProt Q8RDL3); test: SEC; Superdex-200, 0.5 ml/min, 50 mM Tris-HCl pH 7.0, 300 mM NaCl; protein alone, no nucleotide (native TTERecF 100 µM); both purified
[6] = molecular target: deletion mutant of RecF (229aa-262aa) (Thermoanaerobacter tengcongensis MB4) (UniProt Q8RDL3); test: SEC; Superdex-200, 0.5 ml/min, 50 mM Tris-HCl pH 7.0, 300 mM NaCl; protein with ATPɤS (2 mM for native TTERecF; deletion mutant incubated with 1 mM ATPɤS for 30 min); both purified

B1: TTERecF mutant G35A (protein, UniProt Q8RDL3 1-361)
chain: MYLKEIFVDNFRNLKKQKLEFCEGVNLIYGLNAQAKSNLLEAIRLLSMGRSFRGSKMSELVKFDEEYFYVRGLVRSADFYEKKIEFGYKVNGNKVIKVNGNKLKSTGEILGHFLTVIFSPEDIEIIKEGPSRRRKYLDACISVIDKNYFFDLLQYNKTLSNRNSLLKKIKEEGKGEDLLEIFDEKLAEYGARIIKVRNNYLEKLKNSMSKFLMEISNEKLEIIYLNSAGVKEVHEENLIREKLKNRLTKSLTLDLKYLSTQVGPHREDFKILINGYDSRVYSSQGQKRTAALCLKLSELEILEEETGEKPVLLLDDVMSELDDNRKKYILKKLEGFQSFITHTSKSDVEGDCCFKIYDGIV
- binding [1]: no binding (tested: 10 µM, with ATP 1 mM)

B2: TTERecF mutant K36A (protein, UniProt Q8RDL3 1-361)
chain: MYLKEIFVDNFRNLKKQKLEFCEGVNLIYGLNAQGASNLLEAIRLLSMGRSFRGSKMSELVKFDEEYFYVRGLVRSADFYEKKIEFGYKVNGNKVIKVNGNKLKSTGEILGHFLTVIFSPEDIEIIKEGPSRRRKYLDACISVIDKNYFFDLLQYNKTLSNRNSLLKKIKEEGKGEDLLEIFDEKLAEYGARIIKVRNNYLEKLKNSMSKFLMEISNEKLEIIYLNSAGVKEVHEENLIREKLKNRLTKSLTLDLKYLSTQVGPHREDFKILINGYDSRVYSSQGQKRTAALCLKLSELEILEEETGEKPVLLLDDVMSELDDNRKKYILKKLEGFQSFITHTSKSDVEGDCCFKIYDGIV
- binding [2]: no binding (tested: 77 µM, with ATP 1 mM)

B3: TTERecF mutant S37A (protein, UniProt Q8RDL3 1-361)
chain: MYLKEIFVDNFRNLKKQKLEFCEGVNLIYGLNAQGKANLLEAIRLLSMGRSFRGSKMSELVKFDEEYFYVRGLVRSADFYEKKIEFGYKVNGNKVIKVNGNKLKSTGEILGHFLTVIFSPEDIEIIKEGPSRRRKYLDACISVIDKNYFFDLLQYNKTLSNRNSLLKKIKEEGKGEDLLEIFDEKLAEYGARIIKVRNNYLEKLKNSMSKFLMEISNEKLEIIYLNSAGVKEVHEENLIREKLKNRLTKSLTLDLKYLSTQVGPHREDFKILINGYDSRVYSSQGQKRTAALCLKLSELEILEEETGEKPVLLLDDVMSELDDNRKKYILKKLEGFQSFITHTSKSDVEGDCCFKIYDGIV
- binding [3]: no binding (tested: 35 µM, with ATP 1 mM)

B4: TTERecF mutant N38A (protein, UniProt Q8RDL3 1-361)
chain: MYLKEIFVDNFRNLKKQKLEFCEGVNLIYGLNAQGKSALLEAIRLLSMGRSFRGSKMSELVKFDEEYFYVRGLVRSADFYEKKIEFGYKVNGNKVIKVNGNKLKSTGEILGHFLTVIFSPEDIEIIKEGPSRRRKYLDACISVIDKNYFFDLLQYNKTLSNRNSLLKKIKEEGKGEDLLEIFDEKLAEYGARIIKVRNNYLEKLKNSMSKFLMEISNEKLEIIYLNSAGVKEVHEENLIREKLKNRLTKSLTLDLKYLSTQVGPHREDFKILINGYDSRVYSSQGQKRTAALCLKLSELEILEEETGEKPVLLLDDVMSELDDNRKKYILKKLEGFQSFITHTSKSDVEGDCCFKIYDGIV
- binding [4]: no binding (tested: 47 µM, with ATP 1 mM)

- binding [5]: no binding
B5: deletion mutant of RecF (229aa-262aa) (protein, UniProt Q8RDL3)
chain: MYLKEIFVDNFRNLKKQKLEFCEGVNLIYGLNAQGKSNLLEAIRLLSMGRSFRGSKMSELVKFDEEYFYVRGLVRSADFYEKKIEFGYKVNGNKVIKVNGNKLKSTGEILGHFLTVIFSPEDIEIIKEGPSRRRKYLDACISVIDKNYFFDLLQYNKTLSNRNSLLKKIKEEGKGEDLLEIFDEKLAEYGARIIKVRNNYLEKLKNSMSKFLMEISNEKLEIIYLNSAGPHREDFKILINGYDSRVYSSQGQKRTAALCLKLSELEILEEETGEKPVLLLDDVMSELDDNRKKYILKKLEGFQSFITHTSKSDVEGDCCFKIYDGIV
- binding [6]: no binding (tested: with 1 mM ATPɤS for 30 min)
